The other results are listed elsewhere or left out.

The labels stand for the following.
B1: il2ra_site1_3nfp_normal_mot_HHH_b1_00630_af2_000000193_0001_42_55_H_._ae2d1c0b5552e85e62693402b9c72bf7_0001_0001_0000300036_0000001_0 (protein)
chain: DRVAKRLIEEAIRQNDELTLKRILRALENILGNPEEAERVLEELIRELLGDPEEAKEIVQEIAER
B2: il2ra_site1_3nfp_sap_16_mot_HHH_b2_08182_af2_000000158_0001_1_17_H_._HHH_b1_06062_0001_0000500034_0000001_0_0001_af2pred_0001_af2pred (protein)
chain: DEEELVERDLEKLARLAGVPQVSVENRNGTFHIEINGDNKKARHLQRFAERALRSLGKPVEVTVE
B3: il2ra_site2_2erj_normal_mot_HHH_b1_05630_000000190_0001_1_20_H_._HHH_b2_02707_0001_0000500014_0000001_0 (protein)
chain: SSSSDAEELVRRLLEEAEEAAERNDPARVYQLLAEAYRIAFENNDREALRFVSEVSVEIFSSSSS
B4: il2ra_site1_3nfp_normal_mot_HHH_b2_05101_000000267_0001_1_16_H_._ems_3hM_201_0001_0001300038_0000001_1 (protein)
chain: DREQREASDALIEAAAKLQLRNVDPEEVERVIQEVAEELQEEIQDPENQKAVQFLAEFLIKRVCS
B5: il2ra_site2_2erj_sap_26_mot_6d5f7cbc25fed124e3eb7f952334b9cf_0001_af2_000000048_0001_1_13_H_._HHH_b1_03116_af2_0001_0000300013_0000001_0_0001_af2pred_0001_1_af2 … (protein)
chain: SSSSSEAEEEIEELLERIKRLLEEGNPEEALVLILRVAELALELEDEELLEAVTRLLRRTQSSSS
B6: il2ra_site1_3nfp_sap_15_mot_HHH_b2_06193_000000064_0001_1_20_H_._HHH_b1_06659_af2_0002_0000500014_0000001_0_0001 (protein)
chain: SSSSNEQAHEMIRAAAKAQLAAWERGDPETAKEVYELAARYAREGDERLREELERLLEEILSSSS
B7: il2ra_site2_3nfp_sap_16_mot_HHH_b2_06150_000000217_0001_39_53_H_._HHH_b1_00010_0001_0000400034_0000001_0_0001 (protein)
chain: SSSSDQERMLRLALEALEAAARLGDEEMFEKSLEYIKAAALLANDEEVKEEVERLEEEFHSSSSS
B8: il2ra_site2_2erj_sap_18_mot_HHH_b1_02757_000000121_0001_41_57_H_._HHH_b1_04572_0001_0000200008_0000001_0_0001 (protein)
chain: SSSSDIEERLEELIREVEELLERGDPEEATVVLVEAAFLALEAGDDEALRELWKLSREVFSSSSS
B9: il2ra_site2_3nfp_sap_21_mot_HHH_b1_03376_000000004_0001_41_55_H_._HHH_b1_04137_0001_0000300028_0000001_0_0001 (protein)
chain: SSSSSSDDEELKEELKELLEEGDEEKLEEVVKEAAHLAFEKGDFELFAIANEAAEELFSSSSSSS
B10: il2ra_site1_1z92_normal_mot_934a834d9b8b770824478def2ff2f329_0001_af2_000000088_0001_15_30_H_._HHH_b1_08366_af2_0001_0000200014_0000001_0_af2pred_0001_af2pred (protein)
chain: SSSSSAEEELEKIVEELVEEFKLSEIDKRALEKFAKRALEEGADLELIKKDLERTAKHLSSSSSS
B11: il2ra_site2_2erj_sap_30_mot_64bd02d26d05ce9f1a62b616cea0b888_0001_af2_000000029_0001_36_49_H_._HHH_b1_06320_af2_0001_0000700026_0000001_0_0001 (protein)
chain: SSSSSEASERVAELLAEAIELAKEGNPEEAEKLLEEAREIAEKANNEALRRYVEYARRDVSSSSS
B12: il2ra_site2_2erj_normal_mot_HHH_b1_07975_000000047_0001_41_57_H_._HHH_b1_02271_0001_0000200003_0000001_0_af2pred_0001_af2pred (protein)
chain: SSSSDESREVARRSVEELLERGNPIRALAEVRLLREFAERSNDPELRELTEELQELVREGSSSSS
B13: il2ra_site1_3nfp_sap_10_mot_HHH_b2_01680_af2_000000278_0001_1_15_H_._3d8f192e90fe1e6e5fcf0d306f82013b_0001_0001_0000400025_0000001_0_0001 (protein)
chain: DLEENFKEAAEQIAEIAGVPSVEVENNNGTLEVTFEGDEQDARVASKLVEEAARILGVEVSVEVR
B14: il2ra_site1_3nfp_normal_mot_HHH_b2_07277_000000087_0001_39_56_H_._HHH_b2_01570_0001_0000300016_0000001_0 (protein)
chain: SSSSSDEEEFRRRVRELLEEAKEVPDPREAIEIFEEALKLAARLGDPELDKLVREFVKELSSSSS
B15: il2ra_site1_1z92_normal_mot_HHH_b2_07758_000000290_0001_1_17_H_._HHH_b2_04201_af2_0001_0000300026_0000001_0 (protein)
chain: SSSSDRLERQAKRIVEILVEIAGLDEEQQEKLEELAEELLERGVDFLELLKELNRLAAELESSSS
B16: il2ra_site1_2b5i_sap_25_mot_203a44625a3a2ba431098544127a80a6_0001_af2_000000085_0001_36_50_H_._3cb01cd59277439e4f5c2b5f7f6b6153_0001_1_af2_0001_0000100007_00000 … (protein)
chain: SSSSDDEVVEIAAEAFSRASRLFLNGNKEEAREVLEEALRLLRELGDPELVEQLEHFLEKASSSS
B17: il2ra_site1_2b5i_normal_mot_HHH_b2_04910_000000118_0001_1_19_H_._HHH_b1_00447_0001_0000100005_0000001_0_af2pred_dldesign_0_af2pred (protein)
chain: SSSSGSPECVKALELFLEANKLKQAGKEEEAKELLEKALELAKKGKCTSLEKMIESALKSLSSSS
B18: il2ra_site2_3nfp_sap_14_mot_HHH_b1_04720_af2_000000144_0001_22_38_H_._9ef7f51dc382628e5cb330fd54d9e629_0001_0001_0000400020_0000001_1_0001 (protein)
chain: SSSSSDVEELLEQVEELLKEGDKYQATHVLMEASELAARLGDPELVRAVLELFKLLQEASSSSSS

The target of the assay is il2ra, P01589. Kind of assay: yeast display titration.
As to B1, the “apparent Kd” value is “inactive: no binding seen”.
As for B2, the entry is “inactive: no binding seen”.
Consider B3, for which the “apparent Kd” value is “inactive: no binding seen”.
For the molecule B4, the “apparent Kd” value is “inactive: no binding seen”.
Under B5 stands “inactive: no binding seen”; under B6, “inactive: no binding seen”; under B7, “inactive: no binding seen”.
Under B8 stands “inactive: no binding seen”; under B9, “inactive: no binding seen”; under B10, “inactive: no binding seen”.
As for B11, the entry is “inactive: no binding seen”; as for B12, “inactive: no binding seen”; as for B13, “inactive: no binding seen”.
Take B14: the “apparent Kd” value is “inactive: no binding seen”.
Under B15 stands “inactive: no binding seen”; under B16, “inactive: no binding seen”; under B17, “inactive: no binding seen”.
As for B18, the entry is “inactive: no binding seen”.
